# Library screen at single concentrations

Data taken from ChEMBL document CHEMBL3988442, “University of Dundee, Small-Polar-MMV Screening Library” (2021).

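Assay of Toxoplasma gondii numbers, read through their beta-galactosidase reporter with a colour substrate. Compounds at 10 µM. The record gives no direction; the compounds picked for IC50 retests had high values, so higher reads as fewer parasites. Of about 67,000 compounds tested this way, about 260 (0.38%) reached 50% or more in at least one test.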

Each number is a percent effect as filed.
The controls that fix the scale are not given in the record; negative values are as filed.
This is an unselected part of the compounds tested.

compound | effect
COc1cccc(CN2CCC3(CC2)CCN(C(=O)[C@@H]2CCCO2)C3)c1.O=C(O)C(F)(F)F | -16.62
Cc1ncc(C(=O)N2CCCC(Cc3nccs3)C2)cn1 (configuration not stated) | 0.7862
CC(=O)Nc1nc(CN2CCCC2Cn2cccn2)cs1 (configuration not stated) | -25.28
Cn1cc(C(=O)NCc2ccc(N3CCCC3)nc2)ccc1=O | -13.12
CCc1cc(CNC(=O)NCc2ccc(N3CCCCC3)cc2)on1 | -30.56
Cc1cccc(C2(C(=O)NCC3CCN(CC(F)(F)F)C3)CCC2)c1 (configuration not stated) | -11.07
COCCC1(C(=O)O)CCCN(C(=O)c2cnc3c(c2)CCCC3)C1 (configuration not stated) | -7.176
O=C(CCc1nnc2ccccn2c1=O)NCc1ccc2c(c1)OCO2 | -10.01
Nc1ncc(CN2CCC(CCC(=O)NC3CC3)CC2)cn1 | -29.1
O=C(NCC(=O)N1CCCC1Cc1cccc(F)c1)C1CCCC1 (configuration not stated) | 3.182
O=C(CCc1nc2cccnc2[nH]1)Nc1ccc2c(c1)NC(=O)CO2 | 12.46
CSCCC(NC(=O)c1ccccc1)C(=O)N(C)Cc1ccsc1 (configuration not stated) | -3.442
CCN(CCn1cccn1)Cc1nc(-c2ccc(C)o2)oc1C | 6.682
Cc1nn(C)c2c(N3CCC(C)CC3)nc(C3CC3)nc12 | 6.306
Cc1nc(NCC2CCOCC2)cc(C2CCN2S(C)(=O)=O)n1 (configuration not stated) | 6.107
O=C(O)C(F)(F)F.O=C(O)C(F)(F)F.[H][C@@]12COC[C@]1(CN(C)C)CN(Cc1ccc(OC)cc1)C2 | -3.365
[H][C@@]12COC[C@]1(COCC(=O)N1CCCC1)CN(S(C)(=O)=O)C2 | -4.78
Cn1cc(CN2CCC3(CC2)NC(=O)CC3c2ccncc2)cn1.O=C(O)C(F)(F)F.O=C(O)C(F)(F)F (configuration not stated) | 2.081
CCn1c(SCC(N)=O)nnc1C(C)NC(=O)c1ccc(Cl)cc1 (configuration not stated) | 74.14
CCc1noc(CCCC(=O)N2CCCC(c3ccn[nH]3)C2)n1 (configuration not stated) | -0.7789
Cn1cc(C(=O)N2CCCC(Cc3cccc4ncccc34)C2)cn1 (configuration not stated) | -7.613
CC(C)Cn1cc(NC(=O)c2cccc(N(C)C)c2)cn1 | -2.727
O=C(NCCCn1cccn1)C1(c2ccc(F)cc2)CC1 | -0.3284
COCCn1ccc(NCc2scnc2C)n1 | 2.193
Cc1nc2c(N(CCC(N)=O)CCc3ccccc3)ncnc2o1 | 20.35
Cc1cnc(CNc2c(F)cccc2-n2cccn2)o1 | 2.443
CC1(C)CN(C(CNS(C)(=O)=O)c2ccc(Cl)cc2)CCO1 (configuration not stated) | 4.59
CCc1nnc(CN2CCc3ccc(S(N)(=O)=O)cc32)o1 | 1.033
c1cc(-c2c[nH]c([C@@H]3COCCN3CC3CC3)n2)ccn1 | 14.95
Cc1nc2c(c(N3CCN(Cc4ccco4)CC3)n1)CCNCC2 | 2.592
Cc1ncccc1C(=O)N1CCC2(CCc3ccccc3C(=O)N2)C1 (configuration not stated) | 13.36
O=C(c1cccc2cccnc12)N1CCCN(c2cccnn2)CC1 | -6.32
O=C([C@H]1CCCO1)N1CCC2(CC1)C(=O)N(CC1CC1)c1ccccc12 | -6.99
O=C(O)C(F)(F)F.[H][C@]12CCN(C(=O)c3ccncc3F)[C@@]1([H])CC[C@H](COCC(C)C)O2 | 11.66
COc1ccc(C(=O)C2CCCN(Cc3cnn(C)c3C)C2)c(OC)c1 (configuration not stated) | -6.032
CCC(NC(=O)c1nn(C)cc1C(=O)O)c1ccc(C)cc1C (configuration not stated) | 8.201
CN(Cc1ccco1)Cc1cncc2c1CCN(c1ncccn1)C2.Cl.Cl | 1.389
Cn1cc(C(=O)N2CCCC2c2ccc3c(c2)OCCO3)ccc1=O (configuration not stated) | -2.252
O=C(c1scc2c1OCCO2)N1CCOC(CCc2ccccc2)C1 (configuration not stated) | 23.08
[H][C@@]12OCCN(C(=O)c3ccnnc3)[C@@]1([H])CC[C@H]2Oc1cccnc1 | -2.365
Cc1nnc(CN2CCCC(c3cc(C(N)=O)[nH]n3)C2)o1 (configuration not stated) | 0.8616
CCN(Cc1ccc(F)cc1Cl)C1CCS(=O)(=O)C1 (configuration not stated) | -4.221
NC(=O)CN1CCOCC(Cc2ccccc2Cl)C1 (configuration not stated) | -13.61
CC(=O)N1CCN(C(=O)CN2CCCC2c2c(C)nn(C)c2C)CC1 (configuration not stated) | -5.309
CCC(C)(NCC(=O)NC(=O)NC)c1nc(C)cs1 (configuration not stated) | -3.652
[H][C@@]12COC[C@@H](Cc3nc(C)no3)[C@]1([H])CN(C(=O)C1=CCCC1)C2 | -1.649
CCOCC(=O)N1CCC(c2nc(-c3cccnn3)no2)CC1 | 0.7991
O=C(Nc1nccs1)C1CCN(Cc2cccc3c2OCCO3)CC1 | 5.467
COCC1CN(Cc2ccoc2)Cc2cn(C)nc21 (configuration not stated) | 6.075
Cc1noc(C)c1CN1CCOCC12CCN(c1cnccn1)CC2.O=C(O)C(F)(F)F | -15.01
Cc1ccc(S(=O)(=O)NC[C@H]2OC[C@@H](NCc3ccncc3)[C@@H]2O)cc1 | 11.32
Cc1ncc2c(n1)CN(C(C(N)=O)c1ccccc1)CC2 (configuration not stated) | 9.054
Nc1nccnc1C(=O)N(Cc1ccccc1O)CC1CCCO1 (configuration not stated) | -4.487
CC(Cn1cccn1)NC(=O)NCc1ccoc1 (configuration not stated) | 1.619
[H][C@@]12CS(=O)(=O)C[C@]1([H])N(Cc1nccn1CC)CCN2Cc1ccc(C)o1 | -18.13
COc1ccnc(N(C)Cc2c(C)noc2C)n1 | 1.189
COc1cccc(S(=O)(=O)N2CCCCC2CCN2CCOCC2)c1 (configuration not stated) | 13.17
Cn1cc(CN2CCC(c3[nH]ncc3S(C)(=O)=O)C2)cn1 (configuration not stated) | 0.8905
CCN(CC)c1nc(Nc2cccc(C(C)O)c2)nc2ccccc12 (configuration not stated) | 95.47
CC(C)C[C@@H](CO)n1cc(-c2cncnc2)nn1 | -34.43
Cl.O=C(Nc1ccc(F)cc1)C(c1ccccc1)N1CCOCC1 (configuration not stated) | 5.233
N#Cc1cccc(S(=O)(=O)NC(=O)C2CC(c3ccccc3)=NO2)c1 (configuration not stated) | -61.76
CCC(C)N1Cc2c(C(=O)N3CCOCC3)nn(C)c2C1.O=C(O)C(F)(F)F (configuration not stated) | 5.528

4 of the entries, repeated:

- Cc1cccc(C2(C(=O)NCC3CCN(CC(F)(F)F)C3)CCC2)c1 (configuration not stated) | -11.07%
- CCc1cc(CNC(=O)NCc2ccc(N3CCCCC3)cc2)on1 | -30.56%
- [H][C@@]12COC[C@]1(COCC(=O)N1CCCC1)CN(S(C)(=O)=O)C2 | -4.78%
- CSCCC(NC(=O)c1ccccc1)C(=O)N(C)Cc1ccsc1 (configuration not stated) | -3.442%